The source gives many values for each of these; only a part stands here.
Test system: L. major lysate proteins
Assay: Multitargeted bead mixture chemoproteomics, single concentration competition, proteome-wide
Type: binding
Details: for fold change: vehicle control = 1

## CCCCCCOc1ccc(Cc2cnc(N)nc2N)cc1 [compound 1]
Protein LMJF.28.2750 ACTIVATED PROTEIN KINASE C RECEPTOR (LACK)
  fold change: 1
Protein LMJF.29.0120 PROTEASOME REGULATORY NON-ATPASE SUBUNIT, PUTATIVE
  fold change: 0.95
Protein LMJF.29.0760 LIPOPHOSPHOGLYCAN BIOSYNTHETIC PROTEIN, PUTATIVE,HEAT SHOCK PROTEIN 90, PUTATIVE
  fold change: 0.77
Protein LMJF.29.1240 HYPOTHETICAL PROTEIN, UNKNOWN FUNCTION
  fold change: 0.92
Protein LMJF.29.1270 100 kDa heat shock protein (Hsp100)
  fold change: 0.99
Protein LMJF.30.0120 […] SYNTHASE
  fold change vs vehicle control: 1.28
Protein LMJF.30.0750 4-METHYL-5(BETA-HYDROXYETHYL)-THIAZOLE MONOPHOSPHATE SYNTHESIS PROTEIN, PUTATIVE
  fold change: 0.88
Protein LMJF.30.1940 SUCCINYL-COA:3-KETOACID-COENZYME A TRANSFERASE- LIKE PROTEIN
  fold change: 0.94
Protein LMJF.30.2330 HY[…], UNKNOWN FUNCTION
  fold change: 1.09
Protein LMJF.30.2550 HEAT SHOCK 70-RELATED PROTEIN 1, MIT[…], PUTATIVE
  fold change: 1.13
Protein LMJF.30.3090 HYPOTHETICAL PROTEIN, CONSERVED
  fold change: 0.83
Protein LMJF.30.3130 VALYL-TRNA SYNTHETASE, PUTATIVE
  fold change: 0.99
Protein LMJF.30.3430 HY[…], CONSERVED
  fold change: 1.01
Protein LMJF.30.3600 ATP SYNTHASE, EPSILON CHAIN, PUTATIVE
  fold change vs vehicle control: 1.33
Protein LMJF.30.3730 60S ACIDIC RIBOSOMAL PROTEIN P2, PUTATIVE
  fold change: 0.9
Protein LMJF.32.0050 PROTEIN TRANSPORT PROTEIN SEC13, PUTATIVE
  fold change: 0.94
Protein LMJF.32.0750 RNA BINDING PROTEIN, PUTATIVE
  fold change: 1.04
Protein LMJF.32.1060 DYNEIN, PUTATIVE
  fold change vs vehicle control: 1
Protein LMJF.32.2800 HY[…], CONSERVED
  fold change: 1.35
Protein LMJF.32.3270 CHAPERONIN ALPHA SUBUNIT, PUTATIVE
  fold change: 0.94
Protein LMJF.32.3310 DIHYDROLIPOAMIDE DEHYDROGENASE, PUTATIVE
  fold change: 0.79
Protein LMJF.32.3640 HYPOTHETICAL PROTEIN, CONSERVED
  fold change: 1
Protein LMJF.33.0240 THIOL-DEPENDENT REDUCTASE 1
  fold change: 0.96
Protein LMJF.33.0830 2,4-DIENOYL-COA REDUCTASE FADH1, PUTATIVE
  fold change: 0.68
Protein LMJF.33.1590 HY[…], CONSERVED
  fold change: 1.17
Protein LMJF.33.1750 MACROPHAGE MIGRATION INHIBITORY FACTOR-LIKE PROTEIN
  fold change: 0.99
Protein LMJF.33.2060 HYPOTHETICAL PROTEIN, CONSERVED
  fold change: 0.97
Protein LMJF.33.2270 HY[…], CONSERVED
  fold change: 1.09
Protein LMJF.33.2340 SUCCINYL-COA:3-KETOACID-COENZYME A TRANSFERASE, MITOCHONDRIAL PRECURSOR, PUTATIVE
  fold change: 1
Protein LMJF.33.2540 CARBOXYPEPTIDASE, PUTATIVE,METALLO-PEPTIDASE, CLAN MA(E), FAMILY M32
  fold change: 1.04
Protein LMJF.34.0140 MALATE DEHYDROGENASE
  fold change: 1
Protein LMJF.34.0350 EUKARYOTIC TRANSLATION INITIATION FACTOR 5, PUTATIVE
  fold change: 0.91
Protein LMJF.34.0840 T[…] 1-BETA, PUTATIVE
  fold change: 1.09
Protein LMJF.34.0930 HY[…], CONSERVED
  fold change: 1.07
Protein LMJF.34.2340 ASPARAGINYL-TRNA SYNTHETASE, PUTATIVE
  fold change: 0.87
Protein LMJF.34.2580 HY[…], CONSERVED
  fold change vs vehicle control: 1.13
Protein LMJF.34.3250 PUTATIVE PYRUVATE/INDOLE-PYRUVATE CARBOXYLASE, PUTATIVE
  fold change: 1.16
Protein LMJF.35.0070 PROHIBITIN, PUTATIVE
  fold change: 1
Protein LMJF.35.0240 60S RIBOSOMAL PROTEIN L30
  fold change: 1.08
Protein LMJF.35.0360 ENOYL-COA HYDRATASE/ISOMERASE FAMILY PROTEIN, CONSERVED
  fold change: 1.3
Protein LMJF.35.0820 ASPARTATE AMINOTRANSFERASE, PUTATIVE
  fold change: 1.03
Protein LMJF.35.1220 SHORT CHAIN DEHYDROGENASE, PUTATIVE
  fold change: 0.98
Protein LMJF.35.1230 SHORT CHAIN DEHYDROGENASE, PUTATIVE
  fold change: 1.04
Protein LMJF.35.3080 GLYCEROL KINASE, GLYCOSOMAL, PUTATIVE
  fold change: 0.99
Protein LMJF.35.3230 C[…] LYASE, PUTATIVE
  fold change: 1.04
Protein LMJF.35.4420 MIT[…] TRANSPORTER, PUTATIVE
  fold change: 1.15
Protein LMJF.36.0070 STRESS-INDUCIBLE PROTEIN STI1 HOMOLOG
  fold change: 0.87
Protein LMJF.36.0210 SET DOMAIN PROTEIN, PUTATIVE
  fold change: 0.91
Protein LMJF.36.0320 PROTEASOME BETA 2 SUBUNIT, PUTATIVE
  fold change: 0.98
Protein LMJF.36.0930 40S RIBOSOMAL PROTEIN S18, PUTATIVE
  fold change: 1.4
Protein LMJF.36.1260 FRUCTOSE-1,6-BI[…]
  fold change: 1.14
Protein LMJF.36.1430 TRANSLATION ELONGATION FACTOR 1-BETA, PUTATIVE
  fold change: 0.94
Protein LMJF.36.1600 PROTEASOME ALPHA 1 SUBUNIT, PUTATIVE
  fold change: 0.97
Protein LMJF.36.1650 PROTEASOME BETA 5 SUBUNIT, PUTATIVE
  fold change: 0.94
Protein LMJF.36.2030 CHAPERONIN HSP60, MIT[…]
  fold change: 1.03
Protein LMJF.36.2160 HYPOTHETICAL PROTEIN, CONSERVED
  fold change: 0.87
Protein LMJF.36.2660 DIHYDROLIPOAMIDE ACETYLTRANSFERASE PRECURSOR, PUTATIVE
  fold change: 0.81
Protein LMJF.36.2750 ACETYLTRANSFERASE-LIKE PROTEIN
  fold change: 1.06
Protein LMJF.36.2950 SUCCINYL-COA LIGASE GDP-FORMING] BETA-CHAIN, PUTATIVE
  fold change: 1.03
Protein LMJF.36.3210 14-3-3 PROTEIN-LIKE PROTEIN
  fold change: 1.3
Protein LMJF.36.3410 SHORT CHAIN DEHYDROGENASE-LIKE PROTEIN
  fold change: 0.89
Protein LMJF.36.3530 POLYUBIQUITIN, PUTATIVE
  fold change: 1.09
Protein LMJF.36.4420 60S RIBOSOMAL PROTEIN L22, PUTATIVE
  fold change: 1.13
Protein LMJF.36.4460 HYPOTHETICAL PROTEIN, CONSERVED
  fold change: 0.98
Protein LMJF.36.6540 […] ENDO-1-LIKE PROTEIN
  fold change: 1.16

From article PMC6199744, “Development of Chemical Proteomics for the Folateome and Analysis of the Kinetoplastid Folateome” (ACS Infectious Diseases, 2018)
